Experimental data reported in PubChem BioAssay AID540276 (National Center for Advancing Translational Sciences (NCATS), 2011).
Hit rate of the full screen: of about 300,000 compounds, about 5,400 (1.8%) were called active. The inconclusive results got no clear call from the source; some entries with a clear call stand among them for comparison. Calls come from the whole dose curve; tested in HEK293 cells. A potency beside an inconclusive call is a rough fit, not a confirmed value.

experiment: qHTS for inhibitors of binding or entry into cells for Marburg Virus; conditions: Marburg virus pseudotyped entry inhibition, cell reporter; series mostly up to 37.8 µM
Potency is the fitted concentration of half-maximal effect.

Row | Structure (SMILES) | Potency
1 | Cc1ccc(CSc2nc3c(c(N(C)C)n2)CCCC3)cc1 | inconclusive: 35.5 µM [inhibitor, single point]
2 | CCN(CC)CCNC(=O)c1cn(-c2ccccc2)nc1-c1cccs1 | inconclusive: 35.5 µM [inhibitor, single point]
3 | O=C/C(=C\Nc1ccc(Br)cc1)c1nc2ccccc2o1 | inactive
4 | C=CCN(CC(O)c1cccc([N+](=O)[O-])c1)C(C)CCc1ccccc1 (stereo not given) | inconclusive: 22.4 µM [inhibitor, partial curve, poor fit]
5 | CNc1c(N)c(=O)oc2ccccc12 | inconclusive: 0.316 µM [activator, full curve, poor fit]
6 | CC(=O)Nc1ccc(-n2cc3c(c2-c2ccc(C)cc2)c(=O)n(C)c(=O)n3C)cc1 | inconclusive: 35.5 µM [inhibitor, single point]
7 | O=C(CSc1nc2ccccc2c(=O)n1Cc1ccco1)N1CCCCCC1 | inactive
8 | CC(C)OC(=O)c1c(N)n(CCCN2CCOCC2)c2nc3ccccc3nc12 | inactive
9 | Cc1ccc(/C(N)=N/OC(=O)c2ccco2)cc1 | inconclusive: 14.6 µM [inhibitor, single point]
10 | COCCN1C(=O)C2=C(C1=O)C1N(C)c3ccccc3[C@@]13C[C@@H](CO)N(C(C)=O)C3=N2 (stereo not given in full) | inactive
11 | Cc1c(C)c(C)c(S(=O)(=O)n2[nH]c(=O)c(CCO)c2C)c(C)c1C | inconclusive: 10 µM [inhibitor, partial curve, poor fit]
12 | CC(C)(C)C1CCc2nc(NC(=O)COc3ccc(F)cc3)sc2C1 (stereo not given) | inconclusive: 35.5 µM [activator, single point]
13 | CCC(=O)Nc1ccccc1-c1nc2ccccc2n(C(CC)C(=O)Nc2cccc(C(C)=O)c2)c1=O (stereo not given) | inactive
14 | CCCCN(CC)CCCn1cnc2c([nH]c3ccc(Cl)cc32)c1=O | inconclusive: 10 µM [inhibitor, single point]
15 | CCCCC(=O)N/N=C(\C)CC(=O)Nc1ccccc1Br | inactive
16 | COc1ccc(C2C(C#N)=C3NC(=O)c4c(sc5c4CCCCC5)N3C3=C2C(=O)CC(C)(C)C3)cc1 (stereo not given) | inconclusive: 25.9 µM [inhibitor, partial curve]
17 | CCOC(=O)Nc1ccc2c(CNC(C)c3ccccc3OC)cc(=O)oc2c1 (stereo not given) | inconclusive: 12.6 µM [inhibitor, single point]
18 | NC(=S)N=Nc1c(O)cc(O)c2[nH]c(=O)ccc12 | inconclusive: 20 µM [inhibitor, single point]
19 | Cc1cccc(N2C(S)=C(C#N)C(=O)NC2c2ccco2)c1 (stereo not given) | inconclusive: 1.78 µM [inhibitor, partial curve, poor fit]
20 | Cc1cc2oc(C(=O)N(Cc3ccccc3)C3CCS(=O)(=O)C3)c(C)c2cc1C (stereo not given) | inconclusive: 14.1 µM [inhibitor, single point]
21 | CCc1ccccc1N1CC(c2nc3ccccc3n2CC(C)C)CC1=O (stereo not given) | inactive
22 | CCC(C)NC(=O)C1CCN(C(=O)c2cc3sccc3n2Cc2ccc(Cl)cc2)CC1 (stereo not given) | inconclusive: 4.47 µM [inhibitor, full curve, poor fit]
23 | COC(=O)CN(CCc1ccccc1)S(=O)(=O)c1ccc(OC)c(OC)c1 | inconclusive: 6.51 µM [activator, partial curve, poor fit]
24 | O=C(CSc1nc2scc(-c3ccccc3)c2c(=O)[nH]1)Nc1ccccc1 | inconclusive: 28.2 µM [inhibitor, single point]

Row | Structure (SMILES) | Potency
25 | COCCn1c(=NC(=O)c2cc3ccccc3oc2=O)sc2cc(S(N)(=O)=O)ccc21 | inconclusive: 15.8 µM [activator, single point]
26 | O=C(Nc1ccc(N2CCCCCC2)cc1)c1ccccc1Cl | inconclusive: 8.91 µM [inhibitor, partial curve, poor fit]
27 | Cc1cc(=O)c2ccccc2n1CC(=O)NCc1ccccc1 | active: 10.3 µM
28 | CCc1ccccc1NC(=O)CCC(=O)c1cccs1 | inactive
29 | O=C(Cn1ncc2c3ccccc3n(Cc3ccc(Cl)cc3)c2c1=O)NCCCc1ccccc1 | inconclusive: 11.2 µM [inhibitor, single point]
30 | CCOc1ccc(N2C(=O)c3cccnc3C2=O)cc1 | inactive
31 | Cc1ccc(N2C(=O)NC(=O)C(CCc3ccccn3)(Cc3ccc(F)cc3)C2=O)cc1 (stereo not given) | inactive
32 | Cc1ccc(C2NNC(=O)C2NC(=O)c2ccccc2)cc1 (stereo not given) | inconclusive: 1.78 µM [activator, partial curve, poor fit]
33 | CCCNS(=O)(=O)c1ccc(CCC(=O)N2CCN(c3ccc(OC)cc3)CC2)cc1 | inactive
34 | Clc1ccc(-c2c[n+]3c(n2-c2ccccc2)SCC3)cc1 | inactive
35 | CC(C)(C)C(=O)CN1C(=O)C2(OCCO2)c2ccccc21 | inconclusive: 22.4 µM [activator, single point]
36 | CC1=Nc2ccccc2N=C(NC(=O)/C=C/C(=O)O)C1c1ccccc1 (stereo not given) | inconclusive: 3.98 µM [activator, full curve, poor fit]
37 | O=Cc1ccc(-c2nc3ccccc3s2)o1 | inactive
38 | Cc1ccc(C(=O)N2CCC(C(=O)Nc3cccc([N+](=O)[O-])c3)CC2)cc1 | inconclusive: 11.2 µM [inhibitor, partial curve]
39 | CCOC(=O)c1ccc(NC(=O)CCS(=O)(=O)Cc2ccccc2)cc1 | inconclusive: 20 µM [inhibitor, partial curve, poor fit]
40 | CCC(=Cc1ccccc1OC)c1ccncc1 | inconclusive: 35.5 µM [inhibitor, single point]
41 | Cc1nn(-c2ccccc2)c(C)c1NC(=O)CCl | inconclusive: 10 µM [inhibitor, partial curve, poor fit]
42 | Oc1ccccc1N1CCN(C(=S)NCCc2ccccc2)CC1 | inactive
43 | Cc1nn(Cc2c(F)c(F)c(F)c(F)c2F)c(C)c1NC(=O)c1c([N+](=O)[O-])c(C)nn1C | inactive
44 | Clc1ccc(CSc2nnc(-c3ccc4c(c3)OCO4)o2)cc1 | inconclusive: 35.5 µM [activator, partial curve, poor fit]
45 | O=S(=O)(NCc1ccccc1Br)c1cccs1 | inconclusive: 1.16 µM [inhibitor, single point]
46 | CC(/C=N/NC(=O)c1ccc2nc(C)[nH]c2c1)=C\c1ccccc1 | inactive
47 | S=c1[nH]nc(Cc2ccccc2)n1Cc1ccco1 | inactive
48 | CCCCC(=O)Nc1sc(C(=O)N(CC)CC)c(C)c1C(=O)OC | inconclusive: 0.082 µM [inhibitor, full curve, poor fit]

Another view of part of the listing above.
Row	Structure (SMILES)	Potency
17	CCOC(=O)Nc1ccc2c(CNC(C)c3ccccc3OC)cc(=O)oc2c1 (stereo not given)	inconclusive: 12.6 µM [inhibitor, single point]
18	NC(=S)N=Nc1c(O)cc(O)c2[nH]c(=O)ccc12	inconclusive: 20 µM [inhibitor, single point]
19	Cc1cccc(N2C(S)=C(C#N)C(=O)NC2c2ccco2)c1 (stereo not given)	inconclusive: 1.78 µM [inhibitor, partial curve, poor fit]
20	Cc1cc2oc(C(=O)N(Cc3ccccc3)C3CCS(=O)(=O)C3)c(C)c2cc1C (stereo not given)	inconclusive: 14.1 µM [inhibitor, single point]
21	CCc1ccccc1N1CC(c2nc3ccccc3n2CC(C)C)CC1=O (stereo not given)	inactive
22	CCC(C)NC(=O)C1CCN(C(=O)c2cc3sccc3n2Cc2ccc(Cl)cc2)CC1 (stereo not given)	inconclusive: 4.47 µM [inhibitor, full curve, poor fit]
23	COC(=O)CN(CCc1ccccc1)S(=O)(=O)c1ccc(OC)c(OC)c1	inconclusive: 6.51 µM [activator, partial curve, poor fit]
24	O=C(CSc1nc2scc(-c3ccccc3)c2c(=O)[nH]1)Nc1ccccc1	inconclusive: 28.2 µM [inhibitor, single point]
25	COCCn1c(=NC(=O)c2cc3ccccc3oc2=O)sc2cc(S(N)(=O)=O)ccc21	inconclusive: 15.8 µM [activator, single point]
26	O=C(Nc1ccc(N2CCCCCC2)cc1)c1ccccc1Cl	inconclusive: 8.91 µM [inhibitor, partial curve, poor fit]
27	Cc1cc(=O)c2ccccc2n1CC(=O)NCc1ccccc1	active: 10.3 µM
28	CCc1ccccc1NC(=O)CCC(=O)c1cccs1	inactive
29	O=C(Cn1ncc2c3ccccc3n(Cc3ccc(Cl)cc3)c2c1=O)NCCCc1ccccc1	inconclusive: 11.2 µM [inhibitor, single point]
30	CCOc1ccc(N2C(=O)c3cccnc3C2=O)cc1	inactive
31	Cc1ccc(N2C(=O)NC(=O)C(CCc3ccccn3)(Cc3ccc(F)cc3)C2=O)cc1 (stereo not given)	inactive
32	Cc1ccc(C2NNC(=O)C2NC(=O)c2ccccc2)cc1 (stereo not given)	inconclusive: 1.78 µM [activator, partial curve, poor fit]
33	CCCNS(=O)(=O)c1ccc(CCC(=O)N2CCN(c3ccc(OC)cc3)CC2)cc1	inactive
34	Clc1ccc(-c2c[n+]3c(n2-c2ccccc2)SCC3)cc1	inactive
35	CC(C)(C)C(=O)CN1C(=O)C2(OCCO2)c2ccccc21	inconclusive: 22.4 µM [activator, single point]
36	CC1=Nc2ccccc2N=C(NC(=O)/C=C/C(=O)O)C1c1ccccc1 (stereo not given)	inconclusive: 3.98 µM [activator, full curve, poor fit]

Remaining list, next part

Row | Structure (SMILES) | Potency
49 | Cc1cccc(/C(N)=N/OC(=O)CCC2CCCCC2)c1 | inactive
50 | CN(C)CCC(Oc1ccccc1OCc1ccccc1)c1ccccc1 (stereo not given) | inconclusive: 3.55 µM [inhibitor, partial curve, poor fit]
51 | CC(=O)Nc1cccc(-c2nnc(SCC(=O)c3cc([N+](=O)[O-])ccc3Br)o2)c1 | inconclusive: 5.62 µM [inhibitor, single point]
52 | O=C(CSCc1nc2ccccc2[nH]1)Nc1ccccc1 | inactive
53 | COc1cccc2sc(Nc3nnc(-c4ccccc4Cl)o3)nc12 | inconclusive: 5.8 µM [inhibitor, partial curve]
54 | COC(=O)c1ccc(N2C(=O)c3cc(N4CCOCC4)c([N+](=O)[O-])cc3C2=O)cc1 | inconclusive: 0.112 µM [activator, full curve, poor fit]
55 | Nc1c(Cl)cc2c(c1Oc1ccccc1)C(=O)c1ccccc1C2=O | inactive
56 | O=C(COC(=O)CCc1ccc(S(=O)(=O)N2CCOCC2)cc1)Nc1ncc(C(F)(F)F)cc1Cl | inconclusive: 0.058 µM [activator, partial curve, poor fit]
57 | CCCCC(=O)NC(NC(=O)CCCC)c1ccc(OCC(C)C)c(OC)c1 | inconclusive: 2.82 µM [activator, partial curve, poor fit]
58 | Cc1ccc(OCC(=O)Nc2c(Cl)ccc3nsnc23)cc1C | inactive
59 | N#CC1=C(S)N(c2ccccc2)C(c2ccc(-c3ccccc3Cl)o2)NC1=O (stereo not given) | inconclusive: 13 µM [activator, partial curve, poor fit]
60 | Cc1cccc2c1-c1sc(C(=O)NCCCN3CCN(c4cccc(Cl)c4)CC3)cc1CO2 | inconclusive: 22.4 µM [inhibitor, single point]
61 | O=C(Nc1ccncc1)c1cccc(S(=O)(=O)N2CCN(c3ccc(F)cc3)CC2)c1 | inconclusive: 11.2 µM [inhibitor, partial curve]
62 | COc1ccc(-c2noc(C(C)NC(=O)c3ccco3)n2)cc1 (stereo not given) | inactive
63 | CCCCNC(=S)NNC(=O)CCn1nc(C)c(Br)c1C | inconclusive: 20.6 µM [inhibitor, partial curve, poor fit]
64 | NNC(=O)c1cc2ccccc2cc1O | inconclusive: 12.6 µM [inhibitor, partial curve, poor fit]
65 | Cn1c(C(=O)NCc2ccc(Cl)cc2)cc2c(=O)n(C)c3ccccc3c21 | inactive
66 | CC(=O)c1c(C)[nH]c(C(=O)N2CCN(c3ccc(F)cc3)CC2)c1C | inactive
67 | CC(C)c1ccc(/C=N/N2CCN(c3ccccn3)CC2)cc1 | inconclusive: 3.16 µM [activator, partial curve, poor fit]
68 | COc1ccc(NC(=O)CCc2c(C)nc3c(-c4ccccc4)c(C)nn3c2C)cc1Cl | inactive
69 | CN1CCN(CCCN(Cc2cccs2)C(=S)Nc2ccc(Cl)cc2)CC1 | inconclusive: 35.5 µM [inhibitor, single point]
70 | Cc1ccc(OCC(=O)NN=C2c3ccccc3-c3ccccc32)cc1 | inconclusive: 29.1 µM [inhibitor, single point]
